Results published in US20120277409A1, “METAL-POLYSACCHARIDE CONJUGATES: COMPOSITIONS, SYNTHESIS AND METHODS FOR CANCER THERAPY” (priority 2007, published 2012).

Test system: melanoma
Experiment: MRI (1.5 T) of melanoma-bearing pig
Type: in vivo
[1] = 0.13 mmol/kg iv, post-injection

## Gd-EDTA-chitosan
0.13 mmol/kg iv, 5, 30 and 60 min
  percentage (%) of tumor enhancement compared to precontrast signal intensity: 16.3-30.5%
0.13 mmol/kg iv, 5, 30 and 60 min post-injection
  tumor imaging (in words): the tumor could be imaged
[1]
  time of maximal tumor signal intensity: 30 min
  time of optimal tumor enhancement: 30 min
